Experimental data published in publication doi:10.1101/347179.
Changes are numbered by the printed parent chain. No constants are given. Whether binding was seen depends on the method and setting. Binding seen in cells or lysates may run through a third protein. Some binding calls cover weakened binding; strength is not graded here. Sequences can lack the tags named with a protein.

Amino acid sequences for entries named in this document (tags omitted). Residues count along the entry.
UniProt P37198: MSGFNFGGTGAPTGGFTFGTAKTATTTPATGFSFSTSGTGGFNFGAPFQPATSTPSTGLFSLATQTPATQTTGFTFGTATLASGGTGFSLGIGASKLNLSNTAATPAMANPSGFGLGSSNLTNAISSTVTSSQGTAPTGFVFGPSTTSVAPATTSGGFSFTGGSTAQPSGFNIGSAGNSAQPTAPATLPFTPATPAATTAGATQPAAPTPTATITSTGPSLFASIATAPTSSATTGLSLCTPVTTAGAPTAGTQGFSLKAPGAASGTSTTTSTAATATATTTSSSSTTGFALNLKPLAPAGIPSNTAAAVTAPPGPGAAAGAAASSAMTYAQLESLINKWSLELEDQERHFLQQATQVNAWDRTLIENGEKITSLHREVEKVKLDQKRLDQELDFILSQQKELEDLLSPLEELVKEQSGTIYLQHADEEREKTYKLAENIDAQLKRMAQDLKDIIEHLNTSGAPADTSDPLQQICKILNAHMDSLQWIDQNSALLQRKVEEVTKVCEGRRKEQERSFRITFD
UniProt P52948, residues 1-880: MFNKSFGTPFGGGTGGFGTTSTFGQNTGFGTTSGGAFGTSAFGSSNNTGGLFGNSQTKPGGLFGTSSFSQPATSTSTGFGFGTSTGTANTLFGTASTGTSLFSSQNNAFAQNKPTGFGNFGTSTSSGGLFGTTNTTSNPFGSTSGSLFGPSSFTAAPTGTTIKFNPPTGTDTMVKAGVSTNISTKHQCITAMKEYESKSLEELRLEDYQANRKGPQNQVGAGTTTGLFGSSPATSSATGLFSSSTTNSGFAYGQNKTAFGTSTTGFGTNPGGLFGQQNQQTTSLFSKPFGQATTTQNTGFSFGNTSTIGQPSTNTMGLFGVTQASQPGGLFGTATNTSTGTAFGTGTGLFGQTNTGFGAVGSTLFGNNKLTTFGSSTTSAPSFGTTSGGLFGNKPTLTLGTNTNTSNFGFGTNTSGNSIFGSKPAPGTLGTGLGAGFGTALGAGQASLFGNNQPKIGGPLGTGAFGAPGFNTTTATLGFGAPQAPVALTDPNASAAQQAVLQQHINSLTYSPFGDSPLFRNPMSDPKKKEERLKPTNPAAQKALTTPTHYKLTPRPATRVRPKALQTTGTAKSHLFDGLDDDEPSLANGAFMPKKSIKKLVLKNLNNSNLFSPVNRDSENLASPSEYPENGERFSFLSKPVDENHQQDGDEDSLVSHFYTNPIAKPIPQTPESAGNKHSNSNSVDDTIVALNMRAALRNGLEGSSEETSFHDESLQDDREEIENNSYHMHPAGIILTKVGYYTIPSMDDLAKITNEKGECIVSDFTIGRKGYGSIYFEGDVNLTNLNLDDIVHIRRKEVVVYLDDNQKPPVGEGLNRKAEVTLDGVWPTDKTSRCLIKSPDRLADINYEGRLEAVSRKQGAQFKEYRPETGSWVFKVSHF

How the values were obtained:
Experiment in all cases: co-IP
[1] = biological target: T1, GFP-NUP88 p.D434Y (human) (UniProt Q99567)
T1 sequence: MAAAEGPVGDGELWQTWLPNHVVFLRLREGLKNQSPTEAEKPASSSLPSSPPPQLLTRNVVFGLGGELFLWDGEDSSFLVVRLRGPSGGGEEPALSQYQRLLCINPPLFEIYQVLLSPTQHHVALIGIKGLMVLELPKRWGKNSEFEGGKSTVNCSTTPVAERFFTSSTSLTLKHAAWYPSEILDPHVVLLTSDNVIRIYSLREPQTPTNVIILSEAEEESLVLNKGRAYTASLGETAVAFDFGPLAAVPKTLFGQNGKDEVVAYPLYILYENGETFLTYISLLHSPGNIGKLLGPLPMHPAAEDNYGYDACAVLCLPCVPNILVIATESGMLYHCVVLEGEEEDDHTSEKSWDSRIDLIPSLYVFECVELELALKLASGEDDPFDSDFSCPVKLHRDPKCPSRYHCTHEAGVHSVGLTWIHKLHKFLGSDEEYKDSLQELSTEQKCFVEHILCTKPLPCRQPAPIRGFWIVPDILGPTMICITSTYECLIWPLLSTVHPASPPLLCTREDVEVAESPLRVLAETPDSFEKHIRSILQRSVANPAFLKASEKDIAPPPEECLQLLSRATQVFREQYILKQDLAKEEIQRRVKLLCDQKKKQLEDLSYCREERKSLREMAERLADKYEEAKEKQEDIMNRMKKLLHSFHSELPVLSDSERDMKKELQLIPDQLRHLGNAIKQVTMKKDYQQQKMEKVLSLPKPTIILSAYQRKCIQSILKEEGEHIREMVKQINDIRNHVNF

[2] = biological target: T2, GFP-NUP88 p.R509* (human) (UniProt Q99567)
T2 sequence: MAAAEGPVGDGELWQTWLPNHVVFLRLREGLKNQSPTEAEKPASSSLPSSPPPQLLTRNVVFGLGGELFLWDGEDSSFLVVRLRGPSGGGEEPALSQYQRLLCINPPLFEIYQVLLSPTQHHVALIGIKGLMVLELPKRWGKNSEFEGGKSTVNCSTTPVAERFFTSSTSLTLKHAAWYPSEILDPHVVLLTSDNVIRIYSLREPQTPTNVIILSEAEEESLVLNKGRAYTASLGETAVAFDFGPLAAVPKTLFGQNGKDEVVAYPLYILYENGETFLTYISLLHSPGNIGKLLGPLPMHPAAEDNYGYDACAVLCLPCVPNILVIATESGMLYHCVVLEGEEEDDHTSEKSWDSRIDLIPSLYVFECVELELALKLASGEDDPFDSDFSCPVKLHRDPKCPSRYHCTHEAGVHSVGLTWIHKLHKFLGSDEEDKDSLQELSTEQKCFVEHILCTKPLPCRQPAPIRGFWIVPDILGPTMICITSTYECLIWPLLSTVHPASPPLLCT

[3] = biological target: T3, GFP-NUP88 p.E634del (human) (UniProt Q99567)
T3 sequence: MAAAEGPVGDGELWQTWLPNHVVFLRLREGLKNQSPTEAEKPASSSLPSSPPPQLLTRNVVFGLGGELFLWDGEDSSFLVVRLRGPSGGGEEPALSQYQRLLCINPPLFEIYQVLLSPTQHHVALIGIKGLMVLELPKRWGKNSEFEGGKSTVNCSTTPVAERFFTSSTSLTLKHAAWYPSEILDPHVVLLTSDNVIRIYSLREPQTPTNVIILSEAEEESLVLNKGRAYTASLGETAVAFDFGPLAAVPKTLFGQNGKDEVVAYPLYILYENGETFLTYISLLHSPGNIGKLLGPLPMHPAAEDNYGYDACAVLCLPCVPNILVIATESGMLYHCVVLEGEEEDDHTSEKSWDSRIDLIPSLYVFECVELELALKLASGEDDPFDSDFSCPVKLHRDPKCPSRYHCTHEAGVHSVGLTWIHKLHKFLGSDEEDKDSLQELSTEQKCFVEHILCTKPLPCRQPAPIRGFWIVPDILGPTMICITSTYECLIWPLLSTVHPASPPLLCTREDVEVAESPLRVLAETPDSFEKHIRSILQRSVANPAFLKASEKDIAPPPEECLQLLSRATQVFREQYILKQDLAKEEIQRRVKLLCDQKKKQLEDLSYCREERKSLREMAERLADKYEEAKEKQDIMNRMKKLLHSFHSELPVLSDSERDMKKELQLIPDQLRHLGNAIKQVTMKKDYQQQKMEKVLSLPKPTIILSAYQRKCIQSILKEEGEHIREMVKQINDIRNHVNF

[4] = biological target: T4, GFP-NUP88 wild-type (human) (UniProt Q99567)
T4 sequence: T1 sequence with Y434D

Substance | binding [1] | binding [2] | binding [3] | binding [4]
NUP62 (from UniProt P37198 1-522) | binds | no binding | no binding | binds
NUP98 (from UniProt P52948 1-880) | binds | binds | binds | binds
